Results deposited as PubChem BioAssay AID504774 (Drosophila RNAi Screening Center, 2011).
Assay: 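Fly genes whose loss alters survival after alkylation damage to DNA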 (primary screen). System: Drosophila Kc167 cells. Knock-down reagent: long dsRNA against Drosophila genes, about 0.25 µg dsRNA per well. Duration: about 6 days: 3 days knock-down, then 3 days with or without MMS. Challenge: methyl methanesulphonate 0.004% (w/v) for 3 days after knock-down. Measurement: 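Viability in wells given MMS, read as ATP luminescence, normalised by quantiles plate by plate and averaged across replicates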. Reading the numbers: mean viability with MMS: higher = more surviving cells after MMS.
The screen tested about 23,000 reagents; below is an unselected part of those that have a named target and a result. 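Values are quantile-normalised luminescence on an arbitrary scale; higher means more cells surviving MMS.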 A plus sign joins genes that one reagent is predicted to hit. Not all columns of the deposit are shown. Reagent sequences are not shown.

target gene | amplicon | mean viability with MMS
CG15890 | DRSC19737 | 3.55e6
CG7420 | DRSC00704 | 3.57e6
CG13958 (retired record) | DRSC02300 | 3.46e6
Snx1 (Sorting nexin 1) | DRSC00531 | 3.65e6
dup (double parked) | DRSC07088 | 2.28e6
btl (breathless) | DRSC11331 | 3.45e6
csw (corkscrew) | DRSC18756 | 3.38e6
csw (corkscrew) | DRSC23326 | 3.11e6
CG9588 | DRSC16504 | 3.60e6
GstE1 (Glutathione S transferase E1) | DRSC07437 | 3.78e6
ova (ovaries absent) | DRSC02879 | 3.73e6
Spt3 | DRSC15465 | 3.31e6
niki (nimA-like kinase) | DRSC14285 | 3.57e6
CG5969 | DRSC11789 | 3.48e6
CG14731 | DRSC14952 | 3.50e6
CG1889 + CG43386 | DRSC17979 | 3.89e6
Atet (ABC transporter expressed in trachea) | DRSC00263 | 3.33e6
mRpS10 (mitochondrial ribosomal protein S10) | DRSC15557 | 3.54e6
Ir94d (Ionotropic receptor 94d) | DRSC21568 | 3.52e6
CG30339 | DRSC05168 | 3.43e6
CG3045 | DRSC04331 | 3.66e6
para (paralytic) | DRSC19141 | 3.64e6
para (paralytic) | DRSC20360 | 3.45e6
CG17977 | DRSC06700 | 3.64e6
CG17049 (retired record) | DRSC06650 | 3.53e6
Dref (DNA replication-related element factor) | DRSC03319 | 3.24e6
ImpE2 (Ecdysone-inducible gene E2) | DRSC08665 | 3.52e6
CG17272 | DRSC15211 | 3.52e6
Sbds (SBDS ribosome maturation factor) | DRSC10992 | 3.62e6
CG34409 | DRSC14577 | 3.54e6
CG34409 | DRSC21667 | 3.55e6
CG12106 | DRSC17805 | 3.52e6
mthl1 (methuselah-like 1) | DRSC19905 | 3.55e6
Whamy (WHAMM and JMY related) | DRSC14574 | 3.59e6
mRpL30 (mitochondrial ribosomal protein L30) | DRSC18416 | 3.56e6
TwdlV (TweedleV) | DRSC12226 | 3.61e6
CG15650 | DRSC04241 | 3.47e6
Arl4 (ADP ribosylation factor-like 4) | DRSC17156 | 3.58e6
BRWD3 | DRSC15369 | 3.38e6
BRWD3 | DRSC16032 | 3.37e6
stc (shuttle craft) | DRSC03620 | 3.47e6
sel (seele) | DRSC06232 | 3.68e6
CG42758 | DRSC10021 | 3.64e6
Ir52c (Ionotropic receptor 52c) | DRSC21801 | 3.37e6
AANATL5 (Arylalkylamine N-acetyltransferase-like 5) | DRSC05994 | 3.57e6
CG42327 | DRSC14936 | 3.28e6
CG42327 | DRSC14937 | 3.53e6
CG42327 | DRSC23337 | 3.55e6
Cals (Calsyntenin) | DRSC17196 | 3.70e6
Cals (Calsyntenin) | DRSC21661 | 3.55e6
CG14566 | DRSC11727 | 3.66e6
CG14892 | DRSC15014 | 3.32e6
Obp19c (Odorant-binding protein 19c) | DRSC20528 | 3.49e6
CCT5 (Chaperonin containing TCP1 subunit 5) | DRSC07357 | 3.35e6
SP1029 | DRSC16848 | 3.72e6
CG31688 + CG31687 | DRSC02116 | 3.29e6
Pgant3 (Polypeptide N-Acetylgalactosaminyltransferase 3) | DRSC05942 | 3.70e6
CG14985 | DRSC08078 | 3.38e6
CG14985 | DRSC08443 | 3.59e6
CG5664 | DRSC11782 | 1.83e6
CG5973 | DRSC02918 | 3.82e6
CG12065 | DRSC17798 | 3.64e6
CG12065 | DRSC17799 | 3.52e6
CG7069 | DRSC16188 | 3.52e6
Actn3 (alpha actinin 3) | DRSC14106 | 3.63e6
snRNA:U1:95Cc (small nuclear RNA U1 at 95C c) | DRSC13640 | 3.24e6
CG32821 (retired record) | DRSC22544 | 3.63e6
CG31106 | DRSC14655 | 3.63e6
His3.3A (Histone H3.3A) | DRSC03343 | 2.77e6
CG6357 | DRSC06979 | 3.74e6
ppl (pumpless) | DRSC11899 | 3.48e6
SLIRP1 + anox | DRSC20542 | 3.56e6
Gr22c (Gustatory receptor 22c) | DRSC22081 | 3.72e6
AstC (Allatostatin C) | DRSC02403 | 3.46e6
CG13226 | DRSC06346 | 3.76e6
CG9917 | DRSC20218 | 3.45e6
hob (hobbit) | DRSC08426 | 3.70e6
CG4716 | DRSC06884 | 3.65e6
CG13841 | DRSC14691 | 3.46e6
Ugt36A1 (UDP-glycosyltransferase family 36 member A1) | DRSC00748 | 3.67e6
Dcr-2 (Dicer-2) | DRSC06992 | 3.58e6
CG42335 | DRSC14597 | 3.71e6
CG42335 | DRSC15892 | 3.61e6
CG14190 | DRSC19545 | 3.66e6
CG7215 + Prx5 | DRSC16214 | 3.45e6
CG7215 + Prx5 | DRSC16215 | 3.51e6
CG9346 | DRSC04542 | 3.59e6

Looked up above.
SP1029 [DRSC16848], mean viability with MMS = 3.72e6
Entry of mthl1 (methuselah-like 1) [DRSC19905] in “mean viability with MMS”: 3.55e6
Value for CG4716 [DRSC06884] under “mean viability with MMS”: 3.65e6
Result of CG7215 + Prx5 [DRSC16215] under “mean viability with MMS”: 3.51e6
Value for CG14892 [DRSC15014] in “mean viability with MMS”: 3.32e6
Value for Snx1 (Sorting nexin 1) [DRSC00531] under “mean viability with MMS”: 3.65e6
